{"sequences": {"note": "Protein sequences, listed by entry. Tags and fused reporters are not part of them. Lines headed by an entry give the natural chain unless they say otherwise; changes in a name come on top.", "UniProt Q9HCE0": "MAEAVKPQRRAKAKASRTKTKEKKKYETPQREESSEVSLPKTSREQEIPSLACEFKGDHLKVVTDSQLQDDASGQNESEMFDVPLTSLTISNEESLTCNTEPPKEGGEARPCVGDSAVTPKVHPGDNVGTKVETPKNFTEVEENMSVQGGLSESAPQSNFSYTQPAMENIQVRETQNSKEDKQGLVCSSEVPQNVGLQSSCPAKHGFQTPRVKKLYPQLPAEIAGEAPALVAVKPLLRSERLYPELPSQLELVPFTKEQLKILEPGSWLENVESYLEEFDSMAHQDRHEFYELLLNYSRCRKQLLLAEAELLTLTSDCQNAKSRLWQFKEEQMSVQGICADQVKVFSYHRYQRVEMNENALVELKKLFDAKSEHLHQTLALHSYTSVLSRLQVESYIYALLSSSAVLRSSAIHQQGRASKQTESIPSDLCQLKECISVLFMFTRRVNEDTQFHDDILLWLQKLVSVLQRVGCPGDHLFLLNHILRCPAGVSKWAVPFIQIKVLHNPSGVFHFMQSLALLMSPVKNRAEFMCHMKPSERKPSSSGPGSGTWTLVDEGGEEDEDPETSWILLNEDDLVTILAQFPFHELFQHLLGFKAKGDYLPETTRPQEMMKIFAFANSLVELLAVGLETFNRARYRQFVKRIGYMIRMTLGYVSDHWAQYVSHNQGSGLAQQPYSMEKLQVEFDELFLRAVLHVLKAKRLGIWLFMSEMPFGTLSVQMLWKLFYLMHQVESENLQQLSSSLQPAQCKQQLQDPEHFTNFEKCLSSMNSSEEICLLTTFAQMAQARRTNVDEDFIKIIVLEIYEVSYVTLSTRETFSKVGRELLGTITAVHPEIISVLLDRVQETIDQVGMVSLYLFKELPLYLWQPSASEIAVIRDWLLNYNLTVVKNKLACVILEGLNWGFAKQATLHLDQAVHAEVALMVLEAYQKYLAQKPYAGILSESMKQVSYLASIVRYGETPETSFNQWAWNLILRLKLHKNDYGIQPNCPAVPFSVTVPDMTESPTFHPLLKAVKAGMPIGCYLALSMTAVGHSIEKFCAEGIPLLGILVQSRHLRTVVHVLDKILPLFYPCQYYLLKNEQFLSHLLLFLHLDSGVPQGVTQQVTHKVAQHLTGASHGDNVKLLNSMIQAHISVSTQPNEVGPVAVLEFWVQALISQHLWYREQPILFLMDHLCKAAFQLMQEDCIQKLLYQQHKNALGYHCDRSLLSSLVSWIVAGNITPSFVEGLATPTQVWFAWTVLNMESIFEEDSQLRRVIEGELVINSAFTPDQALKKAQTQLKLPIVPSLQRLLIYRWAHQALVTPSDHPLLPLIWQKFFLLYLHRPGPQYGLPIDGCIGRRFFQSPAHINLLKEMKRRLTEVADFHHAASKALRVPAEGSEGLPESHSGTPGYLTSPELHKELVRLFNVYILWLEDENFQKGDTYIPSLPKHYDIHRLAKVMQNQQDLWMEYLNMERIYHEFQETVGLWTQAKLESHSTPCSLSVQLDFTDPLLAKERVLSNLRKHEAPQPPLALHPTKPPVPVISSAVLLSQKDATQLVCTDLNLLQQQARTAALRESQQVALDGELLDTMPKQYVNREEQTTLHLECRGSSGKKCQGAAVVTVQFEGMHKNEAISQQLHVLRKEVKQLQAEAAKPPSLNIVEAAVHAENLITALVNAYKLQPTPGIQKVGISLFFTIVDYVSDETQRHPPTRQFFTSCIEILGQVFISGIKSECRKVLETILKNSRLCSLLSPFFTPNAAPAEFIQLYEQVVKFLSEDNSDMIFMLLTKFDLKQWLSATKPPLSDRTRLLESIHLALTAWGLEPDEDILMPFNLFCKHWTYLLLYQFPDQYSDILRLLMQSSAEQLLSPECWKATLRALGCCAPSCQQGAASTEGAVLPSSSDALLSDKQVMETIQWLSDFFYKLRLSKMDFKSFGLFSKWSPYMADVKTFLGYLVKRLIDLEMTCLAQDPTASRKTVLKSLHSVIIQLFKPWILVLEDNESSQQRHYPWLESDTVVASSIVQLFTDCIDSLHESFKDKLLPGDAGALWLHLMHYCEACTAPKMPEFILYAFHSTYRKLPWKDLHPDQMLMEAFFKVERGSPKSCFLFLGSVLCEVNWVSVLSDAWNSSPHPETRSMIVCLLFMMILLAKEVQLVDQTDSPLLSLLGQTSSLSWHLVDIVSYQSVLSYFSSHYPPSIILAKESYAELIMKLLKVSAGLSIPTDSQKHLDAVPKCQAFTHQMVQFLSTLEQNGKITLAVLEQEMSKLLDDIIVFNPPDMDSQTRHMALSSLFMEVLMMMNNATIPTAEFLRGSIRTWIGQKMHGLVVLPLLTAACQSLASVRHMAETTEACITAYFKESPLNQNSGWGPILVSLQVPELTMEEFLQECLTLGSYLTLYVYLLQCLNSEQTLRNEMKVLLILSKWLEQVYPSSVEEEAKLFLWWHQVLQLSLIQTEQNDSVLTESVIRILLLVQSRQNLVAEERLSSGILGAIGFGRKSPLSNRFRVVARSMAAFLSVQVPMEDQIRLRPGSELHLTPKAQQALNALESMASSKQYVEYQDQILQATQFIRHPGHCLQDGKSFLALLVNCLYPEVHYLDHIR", "UniProt P09382, whole entry": "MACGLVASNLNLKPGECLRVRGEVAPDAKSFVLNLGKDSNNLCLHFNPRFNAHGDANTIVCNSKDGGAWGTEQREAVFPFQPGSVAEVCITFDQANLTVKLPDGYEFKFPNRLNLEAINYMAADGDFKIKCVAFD", "UniProt Q9ULH0": "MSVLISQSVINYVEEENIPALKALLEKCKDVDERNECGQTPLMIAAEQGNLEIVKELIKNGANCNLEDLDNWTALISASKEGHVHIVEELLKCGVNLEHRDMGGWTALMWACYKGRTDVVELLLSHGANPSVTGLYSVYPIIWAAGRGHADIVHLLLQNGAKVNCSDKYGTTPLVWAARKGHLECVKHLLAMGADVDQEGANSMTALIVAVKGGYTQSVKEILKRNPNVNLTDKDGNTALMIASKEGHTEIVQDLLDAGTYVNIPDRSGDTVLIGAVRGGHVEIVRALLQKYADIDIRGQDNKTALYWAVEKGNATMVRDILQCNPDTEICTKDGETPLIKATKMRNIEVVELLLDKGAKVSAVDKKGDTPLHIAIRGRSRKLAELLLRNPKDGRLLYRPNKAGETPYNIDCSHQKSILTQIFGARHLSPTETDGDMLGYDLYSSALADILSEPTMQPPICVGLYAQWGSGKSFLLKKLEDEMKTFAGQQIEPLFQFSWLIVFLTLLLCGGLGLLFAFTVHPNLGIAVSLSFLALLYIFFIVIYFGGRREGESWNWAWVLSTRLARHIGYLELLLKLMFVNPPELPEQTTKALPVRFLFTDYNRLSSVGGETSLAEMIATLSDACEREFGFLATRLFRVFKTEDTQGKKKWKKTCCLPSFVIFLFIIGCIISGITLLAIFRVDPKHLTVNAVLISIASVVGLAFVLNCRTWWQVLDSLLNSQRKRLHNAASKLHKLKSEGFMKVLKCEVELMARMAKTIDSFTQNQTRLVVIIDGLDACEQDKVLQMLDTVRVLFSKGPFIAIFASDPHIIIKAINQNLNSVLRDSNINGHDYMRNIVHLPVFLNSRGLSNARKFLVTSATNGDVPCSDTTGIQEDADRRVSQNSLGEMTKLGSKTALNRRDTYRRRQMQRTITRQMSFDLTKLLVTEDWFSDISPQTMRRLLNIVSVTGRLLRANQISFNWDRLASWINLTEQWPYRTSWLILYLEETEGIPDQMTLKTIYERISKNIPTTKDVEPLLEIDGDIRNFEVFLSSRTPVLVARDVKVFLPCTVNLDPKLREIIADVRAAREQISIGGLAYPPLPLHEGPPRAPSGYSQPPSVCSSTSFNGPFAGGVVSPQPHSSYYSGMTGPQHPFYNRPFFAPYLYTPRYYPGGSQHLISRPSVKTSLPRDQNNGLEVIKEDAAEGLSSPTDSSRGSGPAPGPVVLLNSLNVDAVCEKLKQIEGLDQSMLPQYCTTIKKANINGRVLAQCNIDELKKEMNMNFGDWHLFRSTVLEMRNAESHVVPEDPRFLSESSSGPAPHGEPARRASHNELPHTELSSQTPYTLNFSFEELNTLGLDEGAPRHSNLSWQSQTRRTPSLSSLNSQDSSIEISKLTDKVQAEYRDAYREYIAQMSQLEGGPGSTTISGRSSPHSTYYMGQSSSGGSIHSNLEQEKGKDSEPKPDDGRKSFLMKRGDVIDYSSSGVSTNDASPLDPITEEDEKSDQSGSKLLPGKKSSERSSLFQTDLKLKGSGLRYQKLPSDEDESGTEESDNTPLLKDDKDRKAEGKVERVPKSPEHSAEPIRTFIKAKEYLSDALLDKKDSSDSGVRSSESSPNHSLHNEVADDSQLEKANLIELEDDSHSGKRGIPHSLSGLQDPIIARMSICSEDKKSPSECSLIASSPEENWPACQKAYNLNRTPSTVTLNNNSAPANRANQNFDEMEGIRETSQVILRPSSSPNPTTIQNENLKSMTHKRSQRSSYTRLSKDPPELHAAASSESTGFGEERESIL", "UniProt Q15345": "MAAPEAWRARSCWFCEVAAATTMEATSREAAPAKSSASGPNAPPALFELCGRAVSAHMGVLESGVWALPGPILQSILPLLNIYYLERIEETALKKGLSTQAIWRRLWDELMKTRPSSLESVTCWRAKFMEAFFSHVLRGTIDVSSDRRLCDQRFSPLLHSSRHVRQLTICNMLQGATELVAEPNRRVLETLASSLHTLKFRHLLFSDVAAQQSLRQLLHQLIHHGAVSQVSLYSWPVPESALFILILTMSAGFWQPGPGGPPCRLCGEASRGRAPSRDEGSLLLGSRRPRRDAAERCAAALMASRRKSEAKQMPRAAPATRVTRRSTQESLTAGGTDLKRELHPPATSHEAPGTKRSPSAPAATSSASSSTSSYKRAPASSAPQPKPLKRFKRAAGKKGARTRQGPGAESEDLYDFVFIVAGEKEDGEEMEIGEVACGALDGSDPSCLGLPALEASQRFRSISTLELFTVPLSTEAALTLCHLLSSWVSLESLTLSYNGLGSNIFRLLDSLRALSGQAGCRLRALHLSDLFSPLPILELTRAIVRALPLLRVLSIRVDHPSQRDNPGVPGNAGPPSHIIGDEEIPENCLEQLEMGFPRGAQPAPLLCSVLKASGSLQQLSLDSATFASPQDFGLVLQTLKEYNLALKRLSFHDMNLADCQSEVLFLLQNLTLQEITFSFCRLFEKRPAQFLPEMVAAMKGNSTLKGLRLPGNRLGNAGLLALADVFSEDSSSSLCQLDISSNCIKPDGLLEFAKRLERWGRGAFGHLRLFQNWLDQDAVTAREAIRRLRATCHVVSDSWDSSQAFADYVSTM", "UniProt Q86U70": "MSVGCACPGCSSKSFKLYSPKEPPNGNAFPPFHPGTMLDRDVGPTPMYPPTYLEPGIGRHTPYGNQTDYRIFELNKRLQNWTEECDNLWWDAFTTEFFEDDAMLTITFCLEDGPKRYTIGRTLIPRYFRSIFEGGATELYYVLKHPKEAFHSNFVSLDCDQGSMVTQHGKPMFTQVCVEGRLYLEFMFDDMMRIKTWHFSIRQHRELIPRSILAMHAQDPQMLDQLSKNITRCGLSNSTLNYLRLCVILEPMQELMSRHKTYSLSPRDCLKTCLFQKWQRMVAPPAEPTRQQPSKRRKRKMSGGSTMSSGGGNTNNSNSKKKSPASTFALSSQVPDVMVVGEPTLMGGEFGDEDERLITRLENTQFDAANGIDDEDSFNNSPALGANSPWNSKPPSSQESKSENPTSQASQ", "UniProt P48449": "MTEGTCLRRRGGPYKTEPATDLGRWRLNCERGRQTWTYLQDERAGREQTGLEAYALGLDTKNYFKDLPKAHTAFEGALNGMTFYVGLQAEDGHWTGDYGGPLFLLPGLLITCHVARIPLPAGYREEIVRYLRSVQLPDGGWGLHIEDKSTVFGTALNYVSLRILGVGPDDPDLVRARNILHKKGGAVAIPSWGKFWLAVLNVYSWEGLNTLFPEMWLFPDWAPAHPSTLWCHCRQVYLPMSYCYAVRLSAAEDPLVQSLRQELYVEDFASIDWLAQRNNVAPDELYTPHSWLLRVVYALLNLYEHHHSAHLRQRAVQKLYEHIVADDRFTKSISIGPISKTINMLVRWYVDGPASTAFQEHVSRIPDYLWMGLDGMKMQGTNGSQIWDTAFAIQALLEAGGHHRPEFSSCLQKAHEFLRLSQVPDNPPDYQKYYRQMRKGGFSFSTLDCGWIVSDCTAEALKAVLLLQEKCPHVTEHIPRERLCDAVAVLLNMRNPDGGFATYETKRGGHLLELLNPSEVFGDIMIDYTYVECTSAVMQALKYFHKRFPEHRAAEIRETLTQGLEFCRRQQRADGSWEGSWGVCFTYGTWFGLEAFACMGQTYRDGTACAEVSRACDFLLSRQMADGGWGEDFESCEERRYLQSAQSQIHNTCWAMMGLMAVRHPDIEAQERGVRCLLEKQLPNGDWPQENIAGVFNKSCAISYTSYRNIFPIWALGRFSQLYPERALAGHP"}, "source": "the supplement of paper PMC7666118", "note": "The other results are listed elsewhere or left out."}
{"compound": "COc1ccc(Cn2ccc3ccc(C(=O)NO)cc32)cc1", "assay": "dose-dependent thermal stabilisation call (2D-TPP, DLPTP, 10% FDR) (binary (1 = stabilised)); higher = stabilised by the compound", "settings": "system: HL-60 intact cells; concentration range 0.04-10 µM"}
{"target": "LPCAT2 (UniProt Q7L5N7)", "dose-dependent thermal stabilisation call": "inactive: 0"}
{"target": "KIAA1949 (UniProt Q6NYC8)", "dose-dependent thermal stabilisation call": "inactive: 0"}
{"target": "KIAA1632 (UniProt Q9HCE0)", "dose-dependent thermal stabilisation call": "inactive: 0"}
{"target": "LGALS1 (UniProt P09382)", "dose-dependent thermal stabilisation call": "inactive: 0"}
{"target": "LIMD1 (UniProt Q9UGP4)", "dose-dependent thermal stabilisation call": "inactive: 0"}
{"target": "KIDINS220 (UniProt Q9ULH0)", "dose-dependent thermal stabilisation call": "inactive: 0"}
{"target": "KIAA1468 (UniProt Q9P260)", "dose-dependent thermal stabilisation call": "inactive: 0"}
{"target": "LOC283951", "dose-dependent thermal stabilisation call": "inactive: 0"}
{"target": "LOC442497", "dose-dependent thermal stabilisation call": "inactive: 0"}
{"target": "LRP8 (UniProt Q14114)", "dose-dependent thermal stabilisation call": "inactive: 0"}
{"target": "KPTN (UniProt Q9Y664)", "dose-dependent thermal stabilisation call": "inactive: 0"}
{"target": "LIN7A (UniProt O14910)", "dose-dependent thermal stabilisation call": "inactive: 0"}
{"target": "LAT (UniProt O43561)", "dose-dependent thermal stabilisation call": "inactive: 0"}
{"target": "LSM14A (UniProt Q8ND56)", "dose-dependent thermal stabilisation call": "inactive: 0"}
{"target": "LMAN2L (UniProt Q9H0V9)", "dose-dependent thermal stabilisation call": "inactive: 0"}
{"target": "LRRC41 (UniProt Q15345)", "dose-dependent thermal stabilisation call": "inactive: 0"}
{"target": "LASP1 (UniProt Q14847)", "dose-dependent thermal stabilisation call": "inactive: 0"}
{"target": "LYPLAL1 (UniProt Q5VWZ2)", "dose-dependent thermal stabilisation call": "inactive: 0"}
{"target": "MAN1B1 (UniProt Q9UKM7)", "dose-dependent thermal stabilisation call": "inactive: 0"}
{"target": "LACE1 (UniProt Q8WV93)", "dose-dependent thermal stabilisation call": "inactive: 0"}
{"target": "KIAA0776 (UniProt O94874)", "dose-dependent thermal stabilisation call": "inactive: 0"}
{"target": "MAD2L1 (UniProt Q13257)", "dose-dependent thermal stabilisation call": "inactive: 0"}
{"target": "LDB1 (UniProt Q86U70)", "dose-dependent thermal stabilisation call": "inactive: 0"}
{"target": "KIAA0841 (UniProt O94927)", "dose-dependent thermal stabilisation call": "inactive: 0"}
{"target": "LSS (UniProt P48449)", "dose-dependent thermal stabilisation call": "inactive: 0"}
{"target": "KIAA1618 (UniProt Q63HN8)", "dose-dependent thermal stabilisation call": "inactive: 0"}
{"target": "KIAA0892 (UniProt Q9Y6X3)", "dose-dependent thermal stabilisation call": "inactive: 0"}
